Test results: the supplement of paper PMC12067093, “Discovery and optimisation of a covalent ligand for TRIM25 and its application to targeted protein ubiquitination” (Chemical Science, 2025)
The list shows a part of the results.

Sequences of proteins named here, by UniProt entry; tags and fusion partners are left off.
UniProt Q6ZW49, whole entry, looked up: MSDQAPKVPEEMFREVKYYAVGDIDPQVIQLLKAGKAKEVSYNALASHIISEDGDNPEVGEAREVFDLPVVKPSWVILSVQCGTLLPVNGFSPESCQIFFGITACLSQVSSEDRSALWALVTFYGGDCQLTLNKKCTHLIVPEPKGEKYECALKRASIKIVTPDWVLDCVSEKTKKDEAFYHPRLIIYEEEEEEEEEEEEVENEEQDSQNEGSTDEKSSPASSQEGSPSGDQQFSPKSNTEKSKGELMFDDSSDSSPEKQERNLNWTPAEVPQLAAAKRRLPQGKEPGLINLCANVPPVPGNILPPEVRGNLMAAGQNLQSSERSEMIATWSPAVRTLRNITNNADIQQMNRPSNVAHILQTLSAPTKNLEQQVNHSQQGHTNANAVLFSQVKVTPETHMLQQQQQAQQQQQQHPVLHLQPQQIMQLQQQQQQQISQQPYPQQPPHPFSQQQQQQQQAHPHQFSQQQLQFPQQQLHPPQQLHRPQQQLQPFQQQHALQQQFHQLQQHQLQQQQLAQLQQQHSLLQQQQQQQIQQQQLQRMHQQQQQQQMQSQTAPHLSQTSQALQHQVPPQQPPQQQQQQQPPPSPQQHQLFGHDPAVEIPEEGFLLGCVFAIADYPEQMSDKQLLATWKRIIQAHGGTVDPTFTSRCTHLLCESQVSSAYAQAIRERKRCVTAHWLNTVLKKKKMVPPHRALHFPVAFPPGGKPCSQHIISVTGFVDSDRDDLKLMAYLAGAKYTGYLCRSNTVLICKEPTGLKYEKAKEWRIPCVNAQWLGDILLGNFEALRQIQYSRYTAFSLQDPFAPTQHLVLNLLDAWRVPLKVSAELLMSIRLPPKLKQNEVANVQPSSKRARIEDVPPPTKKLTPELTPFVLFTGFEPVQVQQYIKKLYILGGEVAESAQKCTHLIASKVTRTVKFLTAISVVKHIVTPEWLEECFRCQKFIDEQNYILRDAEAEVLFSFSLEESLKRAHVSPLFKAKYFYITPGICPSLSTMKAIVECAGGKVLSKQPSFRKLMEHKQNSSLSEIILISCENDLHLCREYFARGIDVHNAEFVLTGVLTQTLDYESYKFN
UniProt Q86U86, whole entry, looked up: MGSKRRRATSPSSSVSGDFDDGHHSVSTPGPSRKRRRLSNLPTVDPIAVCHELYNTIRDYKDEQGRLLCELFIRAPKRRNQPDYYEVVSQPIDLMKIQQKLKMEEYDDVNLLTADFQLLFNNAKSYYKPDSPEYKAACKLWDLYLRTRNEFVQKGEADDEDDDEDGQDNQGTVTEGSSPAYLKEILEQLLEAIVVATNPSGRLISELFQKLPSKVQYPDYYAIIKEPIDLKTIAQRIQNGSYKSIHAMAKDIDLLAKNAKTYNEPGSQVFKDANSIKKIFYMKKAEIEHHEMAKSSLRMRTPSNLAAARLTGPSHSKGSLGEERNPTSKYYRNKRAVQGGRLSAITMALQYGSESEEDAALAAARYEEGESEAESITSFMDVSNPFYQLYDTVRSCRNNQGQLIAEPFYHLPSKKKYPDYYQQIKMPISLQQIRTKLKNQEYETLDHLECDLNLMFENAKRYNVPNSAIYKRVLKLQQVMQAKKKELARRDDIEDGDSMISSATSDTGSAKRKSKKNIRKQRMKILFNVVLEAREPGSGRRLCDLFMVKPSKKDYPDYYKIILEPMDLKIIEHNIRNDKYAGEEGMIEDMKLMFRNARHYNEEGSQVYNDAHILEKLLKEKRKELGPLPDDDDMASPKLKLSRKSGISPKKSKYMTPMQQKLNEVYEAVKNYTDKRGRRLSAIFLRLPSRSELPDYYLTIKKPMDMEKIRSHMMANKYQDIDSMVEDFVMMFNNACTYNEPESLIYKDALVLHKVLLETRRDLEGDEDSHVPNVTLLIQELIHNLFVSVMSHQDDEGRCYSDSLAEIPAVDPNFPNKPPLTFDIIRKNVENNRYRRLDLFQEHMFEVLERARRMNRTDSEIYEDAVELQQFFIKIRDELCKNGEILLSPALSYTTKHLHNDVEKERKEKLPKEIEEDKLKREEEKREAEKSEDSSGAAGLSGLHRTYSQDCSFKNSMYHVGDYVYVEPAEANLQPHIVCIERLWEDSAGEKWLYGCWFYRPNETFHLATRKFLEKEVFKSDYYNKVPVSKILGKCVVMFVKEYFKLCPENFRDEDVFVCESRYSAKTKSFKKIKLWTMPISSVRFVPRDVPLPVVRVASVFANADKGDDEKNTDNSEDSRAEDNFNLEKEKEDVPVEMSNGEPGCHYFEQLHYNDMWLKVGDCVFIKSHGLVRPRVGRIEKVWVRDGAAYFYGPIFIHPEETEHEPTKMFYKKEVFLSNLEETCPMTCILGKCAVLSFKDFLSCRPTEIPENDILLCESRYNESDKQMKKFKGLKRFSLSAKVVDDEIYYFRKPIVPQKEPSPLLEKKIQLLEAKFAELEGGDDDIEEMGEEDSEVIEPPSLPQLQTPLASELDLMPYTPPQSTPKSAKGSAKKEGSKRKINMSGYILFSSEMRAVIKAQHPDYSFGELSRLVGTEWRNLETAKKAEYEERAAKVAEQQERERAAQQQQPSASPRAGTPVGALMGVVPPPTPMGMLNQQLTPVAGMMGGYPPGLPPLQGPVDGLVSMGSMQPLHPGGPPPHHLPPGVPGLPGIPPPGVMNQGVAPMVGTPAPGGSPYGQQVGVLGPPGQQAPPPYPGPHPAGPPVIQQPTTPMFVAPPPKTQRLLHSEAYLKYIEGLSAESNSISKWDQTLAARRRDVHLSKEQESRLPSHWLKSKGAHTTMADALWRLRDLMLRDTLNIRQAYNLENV

Legend:
[1] = target: PAXIP1_Q6ZW49_933_HIVTPEWLEECFR (UniProt Q6ZW49); test: probe-labelled cysteine peptide fold change vs DMSO (competition) (log2 fold change); higher = less target engagement (more negative = stronger competition); details: THP-1, incubation time: 4 h
[2] = target: PBRM1_Q86U86_979_NSMYHVGDYVYVEPAEANLQPHIVCIER (UniProt Q86U86); test: as above; details: THP-1, incubation time: 4 h
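Further: competitive chemoproteomic profiling in live THP-1 cells with an iodoacetamide desthiobiotin (IA-DTB) probe, comparing probe-labelled peptide intensities in compound-treated cells against DMSO-treated controls.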

CC1Cc2ccccc2N1C(=O)C1CCCN(C(=O)CCl)C1 (mixture of isomers) [TRIM25 ligand 11 (diastereomer mixture)]
probe-labelled cysteine peptide fold change ([1]; 10 µM): -0.0207
probe-labelled cysteine peptide fold change ([1]; 50 µM): -0.0116
probe-labelled cysteine peptide fold change ([2]; 10 µM): 0.451
probe-labelled cysteine peptide fold change ([2]; 50 µM): -0.0875
